Reference: publication PMC10796919
These are yes or no findings as the source states them, for the method shown. Binding seen in cells or lysates may run through a third protein. Some binding calls cover weakened binding; strength is not graded here.

The chains behind the UniProt entries cited, without tags or fusion partners.
UniProt O96013: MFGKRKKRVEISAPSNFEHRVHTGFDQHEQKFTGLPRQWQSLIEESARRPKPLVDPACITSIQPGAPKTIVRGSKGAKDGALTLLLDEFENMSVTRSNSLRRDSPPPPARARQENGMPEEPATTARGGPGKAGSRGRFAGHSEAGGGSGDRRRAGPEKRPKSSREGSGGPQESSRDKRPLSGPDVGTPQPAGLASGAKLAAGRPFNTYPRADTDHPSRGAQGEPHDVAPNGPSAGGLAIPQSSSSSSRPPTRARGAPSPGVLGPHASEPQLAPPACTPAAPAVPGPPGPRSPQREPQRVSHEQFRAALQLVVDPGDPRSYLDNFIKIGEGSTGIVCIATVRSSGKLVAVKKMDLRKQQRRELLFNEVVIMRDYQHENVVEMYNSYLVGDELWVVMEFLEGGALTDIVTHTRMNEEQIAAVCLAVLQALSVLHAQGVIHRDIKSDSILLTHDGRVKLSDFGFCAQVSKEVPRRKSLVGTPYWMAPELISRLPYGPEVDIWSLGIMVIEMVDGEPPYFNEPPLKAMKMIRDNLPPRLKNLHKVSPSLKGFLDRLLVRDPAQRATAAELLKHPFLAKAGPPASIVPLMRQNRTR

Target: P21-activated kinase 4 (PAK4) (human (endogenous in A549-res and NCI-H520-res)) (UniProt O96013)
Test: co-IP; lysates of A549-res and NCI-H520-res cells (6 x 10^6 cells, 400 ul lysis buffer, 4 °C); immunoprecipitated with 4 ug PAK4 or MEK1 antibody and protein G plus/protein A-agarose, 4 °C, 16 h; western blot with anti-MEK1 or anti-PAK4

Question: Which binding does the source give for “mitogen-activated protein kinase kinase 1 (MAPKK1, MEK1) (from UniProt Q02750 1-393)” here?
Answer: The binding was “binds”.
